No constants are given. Whether binding was seen depends on the method and setting. In cells and extracts the contact can be indirect. A result given as binding can be weak or reduced; the word gives no strength. For part of these data: Where a sequence is shown, tags or fusion partners need not be part of it.
What was measured:
[1] = molecular target: GST-ArfGAP-PH (GxcDD residues 1269-1619 containing the ArfGAP-PH tandem, GST fusion) (Dictyostelium discoideum) (UniProt Q1ZXH8); assay: pull-down; GST-ArfGAP-PH on glutathione-sepharose beads incubated with wild type AX2 cell lysates; a unique band identified by MALDI-TOF mass spectroscopy, confirmed by western blot with GxcDD polyclonal antibodies; only the target purified
[2] = molecular target: T1, GST-RacGEF (GxcDD residues 395-707 containing the RacGEF domain, GST fusion) (Dictyostelium discoideum) (UniProt Q1ZXH8); assay: pull-down; GST-RacGEF on glutathione-sepharose beads incubated 3 hrs at 4°C with lysates of AX2 cells expressing GFP-Rac fusions (25 mM Tris pH 7.5, 150 mM NaCl, 5 mM EDTA, 0.5% Triton X-100, 1 mM NaF, 0.5 mM Na3VO4, 1 mM DTT); eluates immunoblotted with a GFP monoclonal antibody; only the target purified
T1 sequence: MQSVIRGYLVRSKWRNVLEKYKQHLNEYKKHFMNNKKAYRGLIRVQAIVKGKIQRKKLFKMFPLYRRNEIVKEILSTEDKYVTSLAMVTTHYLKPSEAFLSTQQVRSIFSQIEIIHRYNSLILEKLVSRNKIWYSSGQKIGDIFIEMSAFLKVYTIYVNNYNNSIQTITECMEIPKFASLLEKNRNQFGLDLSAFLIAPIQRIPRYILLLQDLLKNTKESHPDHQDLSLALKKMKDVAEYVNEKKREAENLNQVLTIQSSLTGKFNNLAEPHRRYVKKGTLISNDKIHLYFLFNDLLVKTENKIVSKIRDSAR

Sequences of proteins named here, by UniProt entry; tags and fusion partners are left off. A change or cut given only in a name is not applied to a line headed by its entry.
UniProt P34147: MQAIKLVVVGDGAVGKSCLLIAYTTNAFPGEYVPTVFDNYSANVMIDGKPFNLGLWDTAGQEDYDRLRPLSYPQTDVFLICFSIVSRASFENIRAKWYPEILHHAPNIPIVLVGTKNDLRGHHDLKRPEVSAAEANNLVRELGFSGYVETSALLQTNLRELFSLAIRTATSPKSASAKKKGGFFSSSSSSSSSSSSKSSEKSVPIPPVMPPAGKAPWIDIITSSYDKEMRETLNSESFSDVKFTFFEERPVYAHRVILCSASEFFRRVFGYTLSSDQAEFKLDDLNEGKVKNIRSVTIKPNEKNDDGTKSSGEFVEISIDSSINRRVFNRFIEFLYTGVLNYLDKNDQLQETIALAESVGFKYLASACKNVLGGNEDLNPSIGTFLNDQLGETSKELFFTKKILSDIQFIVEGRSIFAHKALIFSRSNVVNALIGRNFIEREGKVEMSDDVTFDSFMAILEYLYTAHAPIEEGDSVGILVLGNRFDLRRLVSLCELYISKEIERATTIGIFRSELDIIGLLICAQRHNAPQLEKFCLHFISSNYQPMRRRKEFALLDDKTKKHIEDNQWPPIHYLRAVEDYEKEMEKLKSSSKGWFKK

[3] = molecular target: GST-ArfGAP-PH (GxcDD residues 1269-1619 containing the ArfGAP-PH tandem, GST fusion) (Dictyostelium discoideum) (UniProt Q1ZXH8); assay: pull-down; GST-RacGEF or GST-ArfGAP-PH on glutathione-sepharose beads incubated with lysates of AX2 cells expressing GFP-CH; eluates immunoblotted with a GFP monoclonal antibody; only the target purified

Molecule: GxcDD (Guanine exchange factor for Rac GTPases), full length (from UniProt Q1ZXH8 1-1632)
- binding [1]: binds

Molecule: GFP-RacA (GTPase domain) (from UniProt P34147) (domain or fragment)
- binding [2]: binds

B1: GFP-CH (first 134 residues of GxcDD with the CH domain, fused to GFP) (domain or fragment, UniProt Q1ZXH8 1-134)
chain: MQPKDYMSSSHANWENIQIDSFTSWINQHLSERGLSVKDLSVDFQDGVLLLNLLEILSGKKIARYVRSPKFLQHKIDNIMIAFNFMEKAFDIKVFGCNAKDIVDGNLKQTMGVIFLLIQKIKVNLHLDHLQEQQ
- binding [3]: binds

Reference: PMC1914345
